# Library screening results

Source: ChEMBL document CHEMBL3988442, “University of Dundee, Small-Polar-MMV Screening Library” (2021).

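Viability assay of Plasmodium falciparum sporozoites; the read-out is not stated. The concentration is filed as 10 mM, unlikely as a test dose, so the dose is not known. Higher reads as lower viability (inferred: compounds with an IC50 in retests scored well above the rest). Strong results were mostly tested again. Size under these conditions: about 34,000 compounds, about 280 of them at 50% or above in at least one test.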

The filed quantity is “Percent Effect” (%).
The record does not define 0% and 100%; most values in the screen are far below 50% and negative numbers occur (in some assays of this library far below -100).
The compounds are a random part of those screened.
Two or more numbers in one place are separate tests of the same structure; such repeats can differ widely.

| # | structure | Percent Effect |
|---|---|---|
| 1 | `Cc1ncsc1-c1nnc(C2CCCN2C(=O)CCn2cccn2)o1` (stereo unspecified) | 1.56 |
| 2 | `Cn1cnc2c1CCN(Cc1csc(Cc3ccccc3)n1)C2` | 0.9874 and -12.14 and -0.93 |
| 3 | `COCC(=O)N1CCCCC1c1nccc(C)n1` (stereo unspecified) | 4.183 |
| 4 | `CN1CCC2(CC1)OC(C(=O)NCc1cccnc1)Cn1ccnc12` (stereo unspecified) | -0.2577 |
| 5 | `COC(=O)CCCNC(=O)N1CCc2c(F)ccc(F)c2C1` | 30.18 and 23.65 |
| 6 | `Cc1cc(C)n(C2CCCN(C(=O)CCNS(C)(=O)=O)C2)n1` (stereo unspecified) | 0.4773 |
| 7 | `CCN(C(=O)COC)C(c1cccnc1)c1cc(C)cc(C)c1` (stereo unspecified) | 11.13 |
| 8 | `CCCNC(=O)C(C)NC(=O)CCc1ccccc1Br` (stereo unspecified) | 0.224 |
| 9 | `COCCN1CCC2(COCc3cnc(-c4ccccc4)nc32)C1.O=C(O)C(F)(F)F` (stereo unspecified) | 0.2431 |
| 10 | `O=C(c1ccccc1OCC1CC1)N1CCCC(n2ccnc2)C1` (stereo unspecified) | -10.26 |
| 11 | `Cc1cc(C)c2nc(CN3CCC(C#N)CC3)cc(O)c2c1` | 0.7718 |
| 12 | `COc1ccc(C2=CCN(C(=O)CN(C)CC(C)C#N)CC2)cc1` (stereo unspecified) | 6.332 |
| 13 | `Cc1ccc(C(=O)NC2CCN(CC(=O)N(C)c3ccccc3)CC2)o1` | 1.706 |
| 14 | `Cc1cc(C(F)(F)F)nc(C2(C)CCCN2CC(N)=O)n1` (stereo unspecified) | 5.115 |
| 15 | `O=C(O)C(F)(F)F.O=C(O)C(F)(F)F.[H][C@@]12CCN(C3CCOCC3)C[C@]1([H])OCCN(Cc1cccnc1)C2=O` | 5.724 |
| 16 | `COCCn1cnnc1C1CCCN(C(C)C)C1` (stereo unspecified) | 11.02 |
| 17 | `[H][C@]12CCC(=O)N(C)[C@@]1(C)CCCCN2C(=O)CCn1nccc1C` | 9.62 |
| 18 | `Cc1noc(C)c1CNC1CCN(c2ccccc2OC(F)F)C1` (stereo unspecified) | -8.772 |
| 19 | `COc1c(CNCc2ccccc2Cn2ccnc2)c(C)nn1C` | 16.22 |
| 20 | `CS(=O)(=O)N1CCC(NC(=O)COc2ccc(Br)cc2Cl)CC1` | 6.077 |
| 21 | `Cl.O=C(NCc1ccc(Cl)cc1)N1CCN(CC(O)C2CC2)CC1` (stereo unspecified) | -9.099 and -2.775 and -5.68 |
| 22 | `CNc1cc(C2CCCN2C(=O)CCc2ccccc2F)ccn1` (stereo unspecified) | -8.12 |
| 23 | `CNC1CCCN(Cc2noc(C3CC3)n2)C1.Cl` (stereo unspecified) | -11.41 |
| 24 | `C1CN(CC2CC2)C(COCC2CC2)c2nnn(CC3CC3)c21.O=C(O)C(F)(F)F` (stereo unspecified) | 0.4866 |
| 25 | `CC(C)NC(=O)C(c1ccccc1)N1CCn2c(nnc2C2CC2)C1` (stereo unspecified) | -1.127 |
| 26 | `COc1cccc(CN2CCCCCC2c2sccc2C)c1O` (stereo unspecified) | 49.38 and 41.71 |
| 27 | `O=C(O)C(F)(F)F.O=C(O)C(F)(F)F.[H][C@@]12CN(Cc3cc[nH]n3)C[C@]1([H])OCCN2CC1CC1` | -8.776 |
| 28 | `O=C(NCc1cnc2n1CCN(Cc1ccsc1)CC2)C1CCC1.O=C(O)C(F)(F)F` | -5.536 |
| 29 | `c1ccn2c(C3CCCN(c4ncnc5c4CCNC5)C3)nnc2c1` (stereo unspecified) | -1.424 |
| 30 | `Cc1cc(N(C)C)nc(C2(C)CCCN2C(=O)c2ccccc2)n1` (stereo unspecified) | 21.06 |
| 31 | `CN(C)c1cc(CNC(=O)c2cc(Cl)ccn2)ccn1` | -9.286 |
| 32 | `COc1ccc(N2CCNC(C(N)=O)C2)cc1` (stereo unspecified) | 12.26 |
| 33 | `Cc1noc(C)c1CN1CCC(c2ccnn2CCO)CC1` | 3.419 |
| 34 | `COCCNC(=O)CCNc1ccc(Cl)cn1` | -9.878 |
| 35 | `O=S(=O)(NCc1ccccc1Cn1cncn1)N1CCCCCC1` | 6.515 |
| 36 | `CNc1nc(N2C[C@H](NC(=O)CCOC)[C@@H](C3CC3)C2)nc2c1CCC2` | -17.73 and -19.53 |
| 37 | `Cn1[nH]c(CNc2cccc(Cl)c2)nc1=O` | -8.084 |
| 38 | `COc1ccc(C2CC(=O)Nc3c2nc2n3CCCC2)cc1OC` (stereo unspecified) | 10.5 |
| 39 | `CCS(=O)(=O)N1CCOC2(CCCN(Cc3ccccn3)C2)C1.O=C(O)C(F)(F)F` (stereo unspecified) | 6.759 |
| 40 | `CN(C)c1ccc(NC(=O)NCc2ccccn2)cn1` | 5.333 |
| 41 | `O=S1(=O)NC(C2CCN(Cc3ccccn3)CC2)Nc2ccccc21` (stereo unspecified) | 10.9 |
| 42 | `Cc1nc(CN2CCCC2Cn2cncn2)no1` (stereo unspecified) | 11.02 |
| 43 | `CN(C)c1ccc(C(=O)NCCCNc2ccc(C(F)(F)F)cn2)cc1` | -0.5877 |
| 44 | `CN(Cc1ccco1)C(=O)CN1CCCC(Cn2cncn2)C1` (stereo unspecified) | 11.65 |
| 45 | `O=C1COC2(CCN(C(=O)c3ccoc3)CC2)CN1Cc1cccnc1` | -9.567 |
| 46 | `O=S1(=O)N=C(CSCc2ccccc2)Nc2ccccc21` | -4.042 |
| 47 | `Cc1oncc1C(=O)NCc1cc(=O)n2c(n1)CN(C(C)C)CCC2.O=C(O)C(F)(F)F` | -2.351 |
| 48 | `COc1ccc(CN2CCC3(CC2)CC(CC(=O)NC(C)C)CO3)cc1.O=C(O)C(F)(F)F` (stereo unspecified) | 5.235 |
| 49 | `Cc1noc(C)c1CN1CCc2ncnc(-c3ccncc3)c2CC1.O=C(O)C(F)(F)F.O=C(O)C(F)(F)F` | 14.18 |
| 50 | `CN1CCN(C(=O)c2ccc(=O)n(C)c2)Cc2ccccc21` | -7.435 |
| 51 | `CN(C)c1cc(C(=O)NCCc2n[nH]c(=O)[nH]2)ccn1` | -7.554 |
| 52 | `CCc1nc(C2CCCN2CCC(=O)N2CCc3ccccc32)no1` (stereo unspecified) | 9.699 |
| 53 | `Cc1nc(C)n(C2CCCN(C(=O)CCOCC(C)C)C2)n1` (stereo unspecified) | 1.236 |
| 54 | `CCC(C)NC(=O)Cc1c(C)nc2c(c1C)c(=O)[nH]n2C` (stereo unspecified) | -8.942 |
| 55 | `CC(C)N(Cc1ccc(C#N)cc1)C(=O)NCCNc1ncccn1` | 11.9 |
| 56 | `CCc1ccc(C2CCCCCN2Cc2nc(CCOC)no2)o1` (stereo unspecified) | -16.14 |
| 57 | `CN(C)CCN(C)C(=O)c1cn(CC2CCCCC2)nn1` | -12.71 |
| 58 | `Cc1ncc(CNC(=O)Cc2cccs2)c(C2CCCN2C)n1` (stereo unspecified) | -0.9327 |
| 59 | `O=C(c1cccc(O)c1)N1C[C@@H](CN2CCCCC2)[C@@H](CO)C1` | -16.67 and -15.33 |
| 60 | `NC(=O)CCOc1nc(-c2ccccc2Cl)no1` | -9.327 |
| 61 | `CN(C)C(=O)COCc1cncc2c1CCN(Cc1ccccn1)C2.O=C(O)C(F)(F)F.O=C(O)C(F)(F)F` | 1.444 |
| 62 | `CCN(C)c1ncnc2c1CCN(C(=O)c1cccn1C)CC2` | 4.774 |
| 63 | `O=C(O)C(F)(F)F.O=C(O)C(F)(F)F.[H][C@]12C[C@@H](CN3CCCC3)N(C)[C@@]1([H])CCN(C(=O)c1occc1C)C2` | 4.195 |
| 64 | `COCCOCCNC(=O)N1CCc2c(F)ccc(F)c2C1` | -26.06 and -29.47 |
| 65 | `CN(Cc1cn2c(n1)CN(CC1CCOC1)CC2)Cc1ccco1.O=C(O)C(F)(F)F.O=C(O)C(F)(F)F` (stereo unspecified) | -3.385 |
| 66 | `Cc1nn(C)c(Cl)c1C1CCCN1Cc1noc(C2CC2)n1` (stereo unspecified) | 3.501 |
| 67 | `Cc1ccoc1-c1nnc(CNC2CCCN(c3cccnn3)C2)o1` (stereo unspecified) | 17.42 |
| 68 | `COCC(=O)N1CCCCC1c1nc(CN(C)C(C)=O)cc(N(C)C)n1` (stereo unspecified) | 11.48 |
| 69 | `CC1CCCCN1c1nc2c(c(=O)[nH]1)CCN(Cc1ccccn1)C2` (stereo unspecified) | 11.05 |
| 70 | `Cc1nc(-c2nnc[nH]2)sc1C(=O)N1CCCC1c1cccs1` (stereo unspecified) | -133 |
| 71 | `COc1ccc(CC(=O)N2CCN(Cc3ccco3)C[C@H]2C)cc1OC` | 7.834 |
| 72 | `CC(O)CN1CCN(C(=O)c2ccc(N(C)C)nn2)CC1` (stereo unspecified) | 1.799 |
| 73 | `CC(C)N1CCC2(CCNCC2)C1=O.Cl` | 7.618 |
| 74 | `Cc1ccccc1C1(CNC(=O)c2cccc(S(C)(=O)=O)c2)CC1` | 0.1112 |
| 75 | `CC(C)NC(=O)C1c2c(ncn2C(C)C)CCN1Cc1ccccc1.O=C(O)C(F)(F)F` (stereo unspecified) | -4.414 and -3.812 |
| 76 | `CC(CNC1CCN(c2ccccn2)CC1)Oc1ccc(F)cc1` (stereo unspecified) | -10.54 |
| 77 | `COCCOCC(=O)Nc1ccc(C)cc1F` | -13.64 |
| 78 | `Cn1ncc2c(NCCOc3ccc(F)cc3)nc(C3CCCC3)nc21` | -17.36 |
| 79 | `Cc1ccc(C(=O)N(C)Cc2cscn2)c(=O)[nH]1` | -3.269 |
| 80 | `Cn1nc(CNC(=O)C2CC2)cc1C1CC1` | -12.85 |
| 81 | `COC1CCCOC12CCN(C(=O)c1ccc3[nH]nnc3c1)CC2` (stereo unspecified) | 5.373 |
| 82 | `Br.O=C(CN(C1=NCCCCC1)c1ccc(Cl)cc1)c1ccccc1` | -1.181 |
| 83 | `CO[C@H]1CCN(C(=O)c2cc(C)on2)[C@H]1Cc1ccncc1` | 3.94 |
| 84 | `CC(C)c1nc(CN2CCN(CC3CCCO3)CC2)cs1` (stereo unspecified) | 10.87 |
| 85 | `COc1c(CNC(c2ccc(F)cc2)C(C)(C)C)c(C)nn1C` (stereo unspecified) | -4.452 |
| 86 | `CCc1nnc(Nc2cccc(C3CCN(C(=O)CN(C)C)CC3)n2)s1` | 7.83 |
| 87 | `Cc1ccc(C(=O)NC2CCN(Cc3noc(CC(C)C)n3)CC2)s1` | 5.453 |
| 88 | `O=c1ccc2c(n1CCN1CCCC1)CCN(c1ncccn1)CC2` | 6.412 |
| 89 | `O=C(O)C(F)(F)F.O=C(O)C(F)(F)F.[H][C@@]12CCN(c3ccc(C)nn3)C[C@]1([H])[C@@H](CN(C)Cc1ccco1)OC2` | 3.51 |

The first 5 entries again:

| structure | Percent Effect |
|---|---|
| `Cc1ncsc1-c1nnc(C2CCCN2C(=O)CCn2cccn2)o1` (stereo unspecified) | 1.56 |
| `Cn1cnc2c1CCN(Cc1csc(Cc3ccccc3)n1)C2` | 0.9874 and -12.14 and -0.93 |
| `COCC(=O)N1CCCCC1c1nccc(C)n1` (stereo unspecified) | 4.183 |
| `CN1CCC2(CC1)OC(C(=O)NCc1cccnc1)Cn1ccnc12` (stereo unspecified) | -0.2577 |
| `COC(=O)CCCNC(=O)N1CCc2c(F)ccc(F)c2C1` | 30.18 and 23.65 |